Results published in doi:10.1101/2024.10.15.618347.

Molecular target: YTHDC1 YTH domain (UniProt Q96MU7)
Assay: EMSA
Settings: 0.13-2 uM protein, 2 nM RNA, residues 345-509

## AACUUAAUGUUUUUGCAUUGGACUUUGAGUU [MALAT1 oligo, unmodified]
  binding result: binds more weakly

The exact form of at least one protein or probe is not confirmed. A weaker result is weaker than the reference pair of the same experiment. At least one verdict was read from the data and is not stated in words by the source.
